Source: PubChem BioAssay AID493246 (Drosophila RNAi Screening Center, 2011)
Assay: 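Genes fly cells need to grow and stay alive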 (primary screen). Cells: Drosophila Kc and S2R+ cells. Reagents: long dsRNA against Drosophila genes. Measurement: 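Raw, unnormalised count of remaining cells in each well; per-plate z-scores of cell number underlie the calls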. Direction: Kc cell number and S2R+ cell number: higher = more cells remaining. Hit rule: 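Counted as a hit if cell number falls by a z-score of at least 3 within its plate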.
The deposit covers about 21,000 reagents; below is a random part of those with a known target gene and a result. Of all reagents, 429 (2%) are marked active. 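Values are raw and not normalised between plates; calls rest on per-plate z-scores that were not deposited.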 Not stated in the record: the amount of reagent, the time to read-out.

CG16826 [DRSC02527] | Kc cell number, rep 1 = 1.64e6; Kc cell number, rep 2 = 1.68e6; S2R+ cell number, rep 1 = 1.33e6; S2R+ cell number, rep 2 = 1.50e6; Outcome = inactive
CG10912 [DRSC06009] | Kc cell number, rep 1 = 1.43e6; Kc cell number, rep 2 = 1.39e6; S2R+ cell number, rep 1 = 1.10e6; S2R+ cell number, rep 2 = 1.15e6; Outcome = inactive
CG9717 [DRSC16543] | Kc cell number, rep 1 = 1.42e6; Kc cell number, rep 2 = 1.41e6; S2R+ cell number, rep 1 = 9.83e5; S2R+ cell number, rep 2 = 1.10e6; Outcome = inactive
Chpf [DRSC19491] | Kc cell number, rep 1 = 1.63e6; Kc cell number, rep 2 = 1.57e6; S2R+ cell number, rep 1 = 1.12e6; S2R+ cell number, rep 2 = 1.17e6; Outcome = inactive
Chpf [DRSC19893] | Kc cell number, rep 1 = 6.16e5; S2R+ cell number, rep 1 = 8.69e5; Outcome = inactive
CG8671 [DRSC03102] | Kc cell number, rep 1 = 1.56e6; Kc cell number, rep 2 = 1.67e6; S2R+ cell number, rep 1 = 1.36e6; S2R+ cell number, rep 2 = 5.81e5; Outcome = inactive
CG8671 [DRSC03103] | Kc cell number, rep 1 = 1.58e6; Kc cell number, rep 2 = 1.67e6; S2R+ cell number, rep 1 = 1.38e6; S2R+ cell number, rep 2 = 5.66e5; Outcome = inactive
wtrw [DRSC14241] | Kc cell number, rep 1 = 1.58e6; Kc cell number, rep 2 = 1.66e6; S2R+ cell number, rep 1 = 1.16e6; S2R+ cell number, rep 2 = 1.29e6; Outcome = inactive
wtrw [DRSC15278] | Kc cell number, rep 1 = 1.46e6; Kc cell number, rep 2 = 1.70e6; S2R+ cell number, rep 1 = 9.48e5; S2R+ cell number, rep 2 = 1.08e6; Outcome = inactive
CG33017 [DRSC06573] | Kc cell number, rep 1 = 1.46e6; Kc cell number, rep 2 = 1.60e6; S2R+ cell number, rep 1 = 1.18e6; S2R+ cell number, rep 2 = 1.27e6; Outcome = inactive
CG33017 [DRSC06574] | Kc cell number, rep 1 = 1.46e6; Kc cell number, rep 2 = 1.55e6; S2R+ cell number, rep 1 = 1.15e6; S2R+ cell number, rep 2 = 1.20e6; Outcome = inactive
CG18666 [DRSC02694] | Kc cell number, rep 1 = 1.74e6; Kc cell number, rep 2 = 1.84e6; S2R+ cell number, rep 1 = 1.20e6; S2R+ cell number, rep 2 = 1.34e6; Outcome = inactive
